Results as given in the supplement of paper PMC4604168 (melanoma cell lines).
This is one part of the list. Repeats are few or missing, and single values can be far off.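 Cells were imaged in 1,536-well plates, and nuclei stained with an antibody against cleaved PARP were counted against all DNA-stained nuclei to give the apoptosis fraction. Screening doses were chosen to leave most cells alive, and resting and induced cleaved-PARP levels differ strongly between cell lines.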

Each compound was assayed on A2058 (assay: cleaved PARP positive nuclei fraction relative to DMSO control; melanoma cells; higher = more apoptosis). Conditions: library dose: low library concentration; 72 h.

SMILES	cleaved PARP positive nuclei fraction
C=CCNC1=C2C[C@@H](C)C[C@H](OC)[C@H](O)[C@@H](C)/C=C(\C)[C@H](OC(N)=O)[C@@H](OC)/C=C\C=C(/C)C(=O)NC(=CC1=O)C2=O [Tanespimycin] + C=CCn1c(=O)c2cnc(Nc3ccc(N4CCN(C)CC4)cc3)nc2n1-c1cccc(C(C)(C)O)n1 [MK1775] (first compound 0.002 µM, partner dose 0.02 µM)	146%
CC(C)(C)c1cnc(CSc2cnc(NC(=O)C3CCNCC3)s2)o1 + Cc1cc(N2CCOCC2)cc2[nH]c(-c3c(NC[C@@H](O)c4cccc(Cl)c4)cc[nH]c3=O)nc12 [BMS536924] (first compound 0.01 µM, partner dose 0.2 µM)	85.1%
Cc1ccc(NC(=O)c2cccc(N(C)C)c2)cc1NC(=O)c1ccc(O)cc1 + NCC(=O)Nc1ccc(-n2nc(C(F)(F)F)cc2-c2ccc3c(ccc4ccccc43)c2)cc1 [OSU03012] (first compound 2 µM, partner dose 1 µM)	184%
OCc1c[nH]c2ccccc12 [Indole-3-carbinol] + O=C(CCCCCCC(=O)Nc1ccccc1)NO [vorinostat] (first compound 0.8 µM, partner dose 0.08 µM)	52.5%
C=CCn1c(=O)c2cnc(Nc3ccc(N4CCN(C)CC4)cc3)nc2n1-c1cccc(C(C)(C)O)n1 + NCC(=O)Nc1ccc(-n2nc(C(F)(F)F)cc2-c2ccc3c(ccc4ccccc43)c2)cc1 [OSU03012] (first compound 0.02 µM, partner dose 1 µM)	244%
